From doi:10.1101/2024.10.10.617637
No constants are given. Whether binding was seen depends on the method and setting. Binding seen in cells or lysates may run through a third protein. Some results given as binding are weak or reduced against the parent protein; the word gives no strength. For some of these results: Sequences can lack the tags named with a protein.

The chains behind the UniProt entries cited, without tags or fusion partners.
UniProt P04406: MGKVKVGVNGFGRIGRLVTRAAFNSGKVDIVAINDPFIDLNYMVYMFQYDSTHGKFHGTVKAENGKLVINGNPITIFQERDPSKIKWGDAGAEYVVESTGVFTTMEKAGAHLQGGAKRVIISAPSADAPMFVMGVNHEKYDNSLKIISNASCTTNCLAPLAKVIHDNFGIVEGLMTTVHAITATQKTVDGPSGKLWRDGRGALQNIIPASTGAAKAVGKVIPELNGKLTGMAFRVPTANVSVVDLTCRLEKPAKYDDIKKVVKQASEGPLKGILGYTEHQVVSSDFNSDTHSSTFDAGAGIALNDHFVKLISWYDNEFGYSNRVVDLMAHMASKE
UniProt O75643: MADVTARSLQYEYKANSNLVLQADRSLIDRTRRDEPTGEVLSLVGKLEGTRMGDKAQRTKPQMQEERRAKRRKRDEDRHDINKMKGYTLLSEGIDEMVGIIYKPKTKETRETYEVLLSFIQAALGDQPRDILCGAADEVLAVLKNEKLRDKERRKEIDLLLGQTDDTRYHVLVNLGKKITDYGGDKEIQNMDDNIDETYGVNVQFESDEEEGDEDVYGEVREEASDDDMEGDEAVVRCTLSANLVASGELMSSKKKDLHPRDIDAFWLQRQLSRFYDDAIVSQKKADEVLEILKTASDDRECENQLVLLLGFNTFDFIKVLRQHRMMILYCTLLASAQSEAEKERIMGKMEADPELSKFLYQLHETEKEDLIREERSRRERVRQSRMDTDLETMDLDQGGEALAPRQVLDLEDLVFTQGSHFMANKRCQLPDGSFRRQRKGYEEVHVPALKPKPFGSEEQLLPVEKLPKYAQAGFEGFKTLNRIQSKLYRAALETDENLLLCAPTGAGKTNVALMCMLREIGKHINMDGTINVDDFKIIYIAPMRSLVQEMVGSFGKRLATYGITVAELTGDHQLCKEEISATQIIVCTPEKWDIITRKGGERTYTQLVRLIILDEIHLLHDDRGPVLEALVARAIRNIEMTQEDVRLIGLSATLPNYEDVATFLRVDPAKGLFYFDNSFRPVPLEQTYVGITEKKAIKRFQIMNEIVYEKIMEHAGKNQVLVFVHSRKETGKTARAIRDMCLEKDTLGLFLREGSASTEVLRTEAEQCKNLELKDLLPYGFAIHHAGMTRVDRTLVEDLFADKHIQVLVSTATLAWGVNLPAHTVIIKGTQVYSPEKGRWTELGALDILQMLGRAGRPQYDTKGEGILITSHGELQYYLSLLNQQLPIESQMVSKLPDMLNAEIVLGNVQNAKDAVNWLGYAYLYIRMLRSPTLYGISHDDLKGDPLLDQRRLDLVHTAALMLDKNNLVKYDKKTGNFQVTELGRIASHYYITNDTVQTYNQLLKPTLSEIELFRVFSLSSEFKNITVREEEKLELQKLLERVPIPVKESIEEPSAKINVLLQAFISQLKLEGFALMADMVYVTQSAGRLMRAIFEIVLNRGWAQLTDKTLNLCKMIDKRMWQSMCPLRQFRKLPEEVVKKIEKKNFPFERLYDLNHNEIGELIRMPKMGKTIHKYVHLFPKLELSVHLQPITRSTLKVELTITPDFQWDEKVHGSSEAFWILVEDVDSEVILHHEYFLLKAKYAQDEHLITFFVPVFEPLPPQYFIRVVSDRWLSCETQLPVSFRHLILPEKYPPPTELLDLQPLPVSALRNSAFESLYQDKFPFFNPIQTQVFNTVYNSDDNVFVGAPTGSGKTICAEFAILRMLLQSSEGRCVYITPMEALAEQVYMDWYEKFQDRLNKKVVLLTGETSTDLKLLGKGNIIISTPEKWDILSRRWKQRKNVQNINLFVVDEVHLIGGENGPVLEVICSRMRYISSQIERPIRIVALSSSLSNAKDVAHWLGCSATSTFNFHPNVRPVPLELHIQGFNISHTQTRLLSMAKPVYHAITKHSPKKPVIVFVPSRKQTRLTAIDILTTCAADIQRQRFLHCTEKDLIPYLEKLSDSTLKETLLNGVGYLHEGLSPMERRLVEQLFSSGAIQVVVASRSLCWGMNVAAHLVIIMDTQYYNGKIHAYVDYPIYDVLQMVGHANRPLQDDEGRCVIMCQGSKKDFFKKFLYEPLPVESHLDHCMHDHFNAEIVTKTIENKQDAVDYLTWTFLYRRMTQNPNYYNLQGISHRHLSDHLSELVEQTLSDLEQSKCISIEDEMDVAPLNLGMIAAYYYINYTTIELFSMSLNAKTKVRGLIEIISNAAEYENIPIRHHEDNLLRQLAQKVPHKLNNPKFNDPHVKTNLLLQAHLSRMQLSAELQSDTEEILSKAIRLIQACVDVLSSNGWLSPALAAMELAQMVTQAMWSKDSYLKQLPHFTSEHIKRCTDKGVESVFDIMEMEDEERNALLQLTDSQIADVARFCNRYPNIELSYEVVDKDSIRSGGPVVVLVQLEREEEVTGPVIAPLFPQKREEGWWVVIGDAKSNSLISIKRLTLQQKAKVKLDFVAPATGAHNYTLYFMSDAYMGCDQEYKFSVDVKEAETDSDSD
UniProt P20042: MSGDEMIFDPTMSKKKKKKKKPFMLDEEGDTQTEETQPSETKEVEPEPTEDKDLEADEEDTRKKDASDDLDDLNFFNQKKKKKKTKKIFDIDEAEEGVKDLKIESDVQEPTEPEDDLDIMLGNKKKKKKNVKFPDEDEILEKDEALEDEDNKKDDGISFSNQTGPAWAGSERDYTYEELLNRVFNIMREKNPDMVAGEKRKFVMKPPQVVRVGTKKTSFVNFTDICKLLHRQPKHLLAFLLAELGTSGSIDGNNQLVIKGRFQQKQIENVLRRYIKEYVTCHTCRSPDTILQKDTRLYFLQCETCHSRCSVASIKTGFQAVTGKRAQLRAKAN
UniProt P60842: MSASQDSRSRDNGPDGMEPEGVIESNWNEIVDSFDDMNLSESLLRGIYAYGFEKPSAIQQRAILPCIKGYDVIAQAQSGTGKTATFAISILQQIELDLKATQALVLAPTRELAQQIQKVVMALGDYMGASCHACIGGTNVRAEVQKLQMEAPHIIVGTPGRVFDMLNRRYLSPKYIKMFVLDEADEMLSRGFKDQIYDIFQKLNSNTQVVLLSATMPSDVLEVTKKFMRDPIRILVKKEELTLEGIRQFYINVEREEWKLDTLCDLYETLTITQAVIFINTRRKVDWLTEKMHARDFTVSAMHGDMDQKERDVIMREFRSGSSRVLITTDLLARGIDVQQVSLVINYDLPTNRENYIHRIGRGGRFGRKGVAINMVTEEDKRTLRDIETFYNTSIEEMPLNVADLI
UniProt P06730: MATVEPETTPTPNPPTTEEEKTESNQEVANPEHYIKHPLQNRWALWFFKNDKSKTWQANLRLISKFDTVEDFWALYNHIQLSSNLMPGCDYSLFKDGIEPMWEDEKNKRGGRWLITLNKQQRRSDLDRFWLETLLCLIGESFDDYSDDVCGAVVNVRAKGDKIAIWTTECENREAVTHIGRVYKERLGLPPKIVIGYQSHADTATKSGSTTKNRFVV

Tests used:
[1] = target: T1, RBM42-HA (human) (UniProt Q9BTD8); assay: co-IP
T1 sequence: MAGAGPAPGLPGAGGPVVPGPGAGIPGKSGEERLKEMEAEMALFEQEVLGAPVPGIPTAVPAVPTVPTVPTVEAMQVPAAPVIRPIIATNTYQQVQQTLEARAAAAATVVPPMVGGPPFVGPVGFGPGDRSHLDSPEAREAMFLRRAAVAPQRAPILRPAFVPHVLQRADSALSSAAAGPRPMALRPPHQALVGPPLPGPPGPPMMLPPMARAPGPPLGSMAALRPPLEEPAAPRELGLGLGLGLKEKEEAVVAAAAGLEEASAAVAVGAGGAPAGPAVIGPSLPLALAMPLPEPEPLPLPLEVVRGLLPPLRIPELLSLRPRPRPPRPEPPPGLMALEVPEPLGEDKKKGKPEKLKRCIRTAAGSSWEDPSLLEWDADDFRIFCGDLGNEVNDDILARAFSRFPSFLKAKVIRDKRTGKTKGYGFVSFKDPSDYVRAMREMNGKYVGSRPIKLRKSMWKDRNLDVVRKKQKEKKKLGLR

[2] = target: T2, RBM42 (RNA binding motif protein 42), endogenous (human (endogenous in Panc-1)) (UniProt Q9BTD8); assay: proximity ligation
T2 sequence: T1 sequence

binding [1] | binding [2] | Substance
no binding | – | EGFR (from UniProt P00533 25-1210) (receptor)
no binding | – | GAPDH (from UniProt P04406 1-335) (enzyme)
binds | – | SNRNP200 (from UniProt O75643 1-2136)
binds | binds | eIF2β (from UniProt P20042 1-333)
binds weakly | – | eIF4A1 (from UniProt P60842 1-406)
binds weakly | – | eIF4E (from UniProt P06730 1-217)
